Values from PubChem BioAssay AID1259299 (Sanger Institute, 2017).

- Screen: 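Kinases and colorectal mutated genes needed by colorectal cancer cells, with or without drugs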 (primary screen)
- Cell system: human CAR1 colorectal cancer cells
- Knock-down reagent: siRNA pool against human genes
- Treatment: anchor drug BYL719 1 µM, cetuximab 5 µg/ml or trametinib 10 nM, or DMSO vehicle alone; exposure length not given
- Read-out: 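Mean replicate viability versus non-targeting controls, turned into robust z-scores, plus drug synergy scores for BYL719, cetuximab and trametinib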
- Scale: viability robust z-score, knock-down alone and viability, knock-down alone (DMSO): higher = more viable cells; synergy score with BYL719: higher = stronger synergy with drug (synthetic lethal)
- Hit rule: 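Essential when viability robust z-score with knock-down alone (DMSO) is below -3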
- Meaning of the calls: active = essential (knock-down alone); inactive = no change
The deposit covers 794 reagents; below is an unselected part. 9 of all reagents (1.1%) count as active. 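Calls rest on knock-down alone; synergy scores play no part in calls, and no gene passed the synergy cut.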 Viability is capped at 1. Not all columns of the deposit are shown. No sequences are given here. The record does not give: the amount of reagent, the time to read-out.

The opening 3 entries, ahead of the listing:
target gene | viability robust z-score, knock-down alone | viability, knock-down alone (DMSO) (fraction of control) | synergy score with BYL719 | Call
DGKK | 0.789 | 1 | -0.0654 | inactive
GALK2 | -2.76 | 0.672 | -0.177 | inactive
ALK | -0.0516 | 0.922 | -0.116 | inactive

The listing, from the first entry:
target gene | viability robust z-score, knock-down alone | viability, knock-down alone (DMSO) (fraction of control) | synergy score with BYL719 | Call
DGKK | 0.789 | 1 | -0.0654 | inactive
GALK2 | -2.76 | 0.672 | -0.177 | inactive
ALK | -0.0516 | 0.922 | -0.116 | inactive
HIPK2 | 0.219 | 0.947 | -0.115 | inactive
BMP2K | 0.789 | 1 | -0.0964 | inactive
EIF2AK2 | 0.789 | 1 | -0.0278 | inactive
TAOK1 | 0.762 | 0.997 | -0.125 | inactive
SRMS | 0.458 | 0.969 | 0.0997 | inactive
BMX | 0.789 | 1 | -0.167 | inactive
PIK3C2A | -1.76 | 0.764 | -0.147 | inactive
PHKB | 0.789 | 1 | -0.206 | inactive
PI4KB | 0.657 | 0.988 | -0.0735 | inactive
TGFBR1 | -1.14 | 0.822 | -0.295 | inactive
STAG2 | 0.789 | 1 | -0.197 | inactive
SGK1 | 0.421 | 0.966 | -0.113 | inactive
IPMK | 0.789 | 1 | -0.205 | inactive
PDIK1L | 0.789 | 1 | -0.0511 | inactive
GRK2 | -2.62 | 0.685 | -0.0692 | inactive
PRKCSH | 0.714 | 0.993 | -0.0353 | inactive
EPHA4 | 0.789 | 1 | -0.142 | inactive
SYNCRIP | -2.38 | 0.708 | -0.0933 | inactive
DAPK3 | -0.0434 | 0.923 | -0.0834 | inactive
STK3 | 0.503 | 0.974 | -0.142 | inactive
NRAS | 0.284 | 0.953 | -0.119 | inactive
CDKN2B | 0.789 | 1 | -0.0711 | inactive
VRK1 | 0.789 | 1 | -0.159 | inactive
GK | 0.789 | 1 | -0.13 | inactive
BRSK2 | 0.789 | 1 | -0.159 | inactive
CDK13 | 0.789 | 1 | -0.158 | inactive
ROR1 | 0.557 | 0.979 | -0.06 | inactive
EPHA5 | 0.324 | 0.957 | -0.24 | inactive
PTK7 | -2.04 | 0.738 | -0.0549 | inactive
MKNK1 | 0.717 | 0.993 | -0.0434 | inactive
CDK7 | 0.646 | 0.987 | -0.216 | inactive
MAST4 | 0.789 | 1 | -0.192 | inactive
TAF1L | -1.07 | 0.828 | -0.0996 | inactive
MAPK10 | 0.225 | 0.948 | -0.13 | inactive
MYH10 | 0.6 | 0.983 | -0.0375 | inactive
NEK5 | 0.546 | 0.978 | -0.224 | inactive
RUNX1 | -2.58 | 0.689 | -0.162 | inactive
PIK3R2 | 0.0848 | 0.935 | -0.231 | inactive
SMAD4 | -0.357 | 0.894 | -0.105 | inactive
EPHB4 | 0.12 | 0.938 | -0.0993 | inactive
NME6 | -1.65 | 0.775 | -0.221 | inactive
LRRK2 | 0.546 | 0.978 | -0.0744 | inactive
MAP3K8 | 0.387 | 0.963 | 0.0394 | inactive
PRKG1 | 0.255 | 0.951 | -0.138 | inactive
TRIB2 | -0.0885 | 0.919 | -0.0871 | inactive
CASK | 0.789 | 1 | 0.00888 | inactive
TTK | 0.253 | 0.95 | -0.183 | inactive
